# According to publication doi:10.1101/2024.02.17.580811:
# Amino acid sequences for entries named in this document (tags omitted).
# UniProt P24782: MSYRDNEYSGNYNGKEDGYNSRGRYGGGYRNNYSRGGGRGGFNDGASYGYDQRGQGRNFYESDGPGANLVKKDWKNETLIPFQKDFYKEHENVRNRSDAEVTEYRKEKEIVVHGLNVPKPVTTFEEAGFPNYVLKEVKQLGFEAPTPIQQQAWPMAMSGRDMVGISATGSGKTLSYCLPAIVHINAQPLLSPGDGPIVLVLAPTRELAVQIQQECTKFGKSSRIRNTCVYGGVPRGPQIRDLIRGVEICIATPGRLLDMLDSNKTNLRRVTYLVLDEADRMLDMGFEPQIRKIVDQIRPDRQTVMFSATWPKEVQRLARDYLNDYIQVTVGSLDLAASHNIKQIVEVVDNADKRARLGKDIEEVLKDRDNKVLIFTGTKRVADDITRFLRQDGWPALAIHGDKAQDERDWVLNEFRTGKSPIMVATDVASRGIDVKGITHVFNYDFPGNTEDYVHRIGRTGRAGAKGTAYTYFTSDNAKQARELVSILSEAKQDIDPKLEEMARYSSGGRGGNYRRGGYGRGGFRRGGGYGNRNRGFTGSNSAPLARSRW
# T1: Srp2-HTP (S. pombe) (UniProt P78814)
# T1 sequence: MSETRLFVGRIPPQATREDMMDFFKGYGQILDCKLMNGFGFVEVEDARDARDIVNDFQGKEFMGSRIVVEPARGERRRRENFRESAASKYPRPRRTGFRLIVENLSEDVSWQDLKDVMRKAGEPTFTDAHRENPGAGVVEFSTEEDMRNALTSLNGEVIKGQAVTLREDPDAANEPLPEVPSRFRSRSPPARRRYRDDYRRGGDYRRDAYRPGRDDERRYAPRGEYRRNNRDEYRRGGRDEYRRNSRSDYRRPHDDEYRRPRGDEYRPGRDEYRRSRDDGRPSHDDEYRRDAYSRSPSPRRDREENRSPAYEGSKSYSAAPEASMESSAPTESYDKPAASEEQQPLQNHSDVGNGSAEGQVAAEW
# B1: Rsc7 (protein, UniProt O94522 1-390)
# chain: MDSTAGSDASTPTNHTVSSKKRRGRPPKGSYAAYGSSDDDDEEYSGRTRRRNRNTRPRVSAPSSSSTVVPKDLYSHRATLEDDELNFGVVDPEGEKKVNELGYLNGGREYRCRTFTCLGRGNRLYMLSTEPARAMGYRDSYLLFLKHRSLHKIIVDDSEKWDLIERNIIPHSYKGRAVGIVAARSIFREFGARIIVGGRRIVDDYWEGEFRARGFVEGELADPDDKLPPPGMPYNRNQYVAWHGASAVYHPQPSLEAQLPAAARKRKKEPPKDATWLFQHAKATAAYNNDITKYLVQKQDIGYFEPHTNLLHVPLNTQPTKTHWIQAKTGTECPAPKLDILVALNSDVAPQVSIANIPPSVYASCPLHVQEAIRKRQEQEIRSIRLNSMY
# B2: mRNA export receptor Mex67 (protein, UniProt Q9Y8G3 1-596)
# chain: MLRRKRERRNAVKENEMVIDTPLEKRRTPGKPRATREPPISVVITGHSKGSEDDLISFVWRKVKVRLMNISYSPASVTAVVKSQDFSRLNGLNGAAFAGDHLAIRRVDGASNVTQDYRKAKTKRSFRSVSAPSLSALATQAQRNVSKTLPQSTNETIEKLRQFLQTRYQPATKFLDLGNLQQDPLLKQMGILAEASTKSKMFPALMKVASLNFPDVISVSLSDNNLQSVTAVTTLAQTWPKLLNLSLANNRITSLSDLDPWSPKTKLPELQELVLVGNPIVTTFANRAMDYQREMVSRFPKLRLLDGNSINSEIIASQSTVPFPVYQSFFDKVETEQIVNSFLAAFFKGWDENRSALVNQLYSPNATFSISLNASNVRTNFSQKTDTKKWGAYKMKSRNLLYSQSQKESKSRLFNGHEEISNAVKSLPATAHDLSDRSQWVFDGWNLVLPSVGAAIKIVVHGQFEEPQNKRLLRSFDRTLLILPGGSTGILIINDLLVIRSFAGSLGWLPGQSSVRTSNNAMSASASKPSDIVQPRPEQAMLDTRQQIVLKIKAETGLNDYYAHMCCEQNNWDYNSALASFLELKSRNVIPAEAFS
# B3: Mlo3 (protein, UniProt Q09330 1-199)
# chain: MSMELDQSLDAIIASKPKGGIRKRRARSNKPKPTKNAKPAVNTASALKSVISEESKIIVSNLPTDVTEAQVKELFVKSIGPCKRVSLAYGPNGRSKGIATIIFSRPGDATRAYEQYEGRLVDGTRKMKVEIILDPSRQLNSLAARVSPASNASATASKNGAKSSKRKTTRRRRTPNRPKKSAEELDKEMDDYFGSNEKE
# B4: Mlo1 (homologue of human SARNP/CIP29) (protein, UniProt O74871 1-245)
# chain: MSDYKSLKVAELREKLAEKGLSTAGNKAELVSRLTAATESNDENTSNNNATDLGDLAPPEDDIDWGDMENDTISTDVNKPAEPESKETSAPAAAVEIEKENESIISKETSQAPETSTGAEEHQETTEESKQSVSNEVSSPDVAKEQEKLIQRAKRFGIPVDDEQIKKAARAARFGIQQPLASSNNKNHNQSKNPQNRSNSRSKQRNKNAPPKSAPSKRKSNILDDPIEAEKARKRAERFGVAAKN
# B5: Rsc9 (protein, UniProt Q9P7W8 1-780)
# chain: MSQVIQGAVEEPVYSNKSLTNENDSFLSLIESFSQERGVPIDINPKIGRKPILLYELYKKVIKRGGYDAVSATEDGWTNIAEEFNQSDPARSAGILQNVYFKYLISWEIHDHWHLLLPPPSTLELSENRQNVLERVKVFNSCSPPKPTNPITIIDNDKTHSFKKFYKSLVKEDEENGIEKKINEAMNSSASQPLPNSTNFASTTFPSVPFHPLPVDSGLQKYIDRNSNLTPPALGAGVPGPPLLVRVALALKSQQDKEVDWAIGHLIKISFERHQEFKLERLPSLAECLVYSLGFQVTKAKQVSDLTDISLCMDRAIGIALVLRNSVLSVENAKHVAQTKLVISVLEASIRCAKTFNNLEFLHYCLDISEMISSYLHVEDEKNVFYLALCEFLNSSDYSILIATLRTLARLALNDRNNRLLQDLKSNVIANIIALVETDNEEIVAAALDFLYQYTTYRTNTSNLLASQEAWMLVDQLIRLMMYQAQERFMTVTIENSESNPAVKHEATSSISLPMEELQQLVAMREPERSVKWMRCCFEPSSDDYVLQTDIWQLYCSDMERAQGPNVMGISPADFIKVSSHAFYNARAMTVSTPQLPVEYVINGIKRRKFPTSVNGMRYQPCRWCLDSGKECGELLLGTPLLHSHLQEMHIFPQILETGKCRWSDCKYEIQRLTPASELSHYQLLSHIVTHLHDDSLETLVEGRKLSPSREFRIPLLLTAVDDQGDATGIALTATLVLRNLVRSKQGKMLFSAIESRVLEVSSLNPAVAPYVSEMLLGQI
# B6: type I protein arginine N-methyltransferase (PRMT1) Rmt1 (enzyme, UniProt Q9URX7 1-340)
# chain: MPGNTKKSADSGLTAKDYYFDSYSHWGIHEEMLKDDVRTLSYRDAIMQNPHLFRDKIVLDVGCGTGILSMFCARAGAKHVYGVDMSEIIHKAVQIVEVNKLSDRITLIQGKMEEIQLPVEKVDIIVSEWMGYFLLYESMLDTVLVARDRYLAPDGLLFPDRAQIQLAAIEDADYKSEKIGFWDDVYGFDFSPIKKDVWKEPLVDTVDRIAVNTNSCVILDLDLKTVKKEDLAFSSPFEITATRNDFVHAFLAWFDIEFSACHKPIKFSTGPFSRYTHWKQTVFYTHKDLTVKAGEYIRGTITCKPAEGNHRELDIDISYTFNPREPNREPVSEDLSYRMC
# B7: SR protein kinase Dsk1 (enzyme, UniProt P36616 1-544)
# chain: MGSDGSSLSPKVSQPGHTEIVDHVSEKVITNGKNVNKKVNAEVDGKSMVEKVKTHEENAEDYHYGGYHPVYIGEEFHHRRYVVERKLGWGHFSTVWLAYDRAAKRRVALKVVRSAEHYRETSIDEIRILQKIREGDEKHLGKKHIISLLDYFVHRGPNGAHVCMVFEVLGENLLSLIQSYGHRGVPVGIVKQIAYQLLIALDYLHRECGIIHTDLKPENVLICIDQDALQHIEAPATTSSPTSNTSSSKTRNNTGYTAKAPIIKRGQSVDNSAQERKTFAKNPTKNSKPAGQVIPSSPFTSTLSRFPSLEGAVSEISLRDSQKHNSHPNSPFSSGDNSLILDGVNGSQEPVPKITVKIADLGNACWTRKHFTNDVQTRQYRSPEVILGCRWGASADCWSFACIIFELLTGDYLFDPRNGNSYSKEDDHIAQIIELLVNYPKQMALSGKHSRDLFNRRGELRNIHKLKFWPLKDVLEQKYHFSAELAQQISDFLSPMLCFDPAKRTNAGYMSNSPWLREVADPTFKIETTGATGEDVPGWATEIR
# B8: Rpb8 (protein, UniProt Q92399 1-125)
# chain: MSESVLLDEIFTVTSVDKQKYQRVSRITAVSGQNDMNLTLDINSQIYPLEKDATFSLQITSNLNSPDLKEAADYIMYGKVYRVEEAKDEKVSVYVSFGGLLMAIEGSHRKLYRLSLDHVYLLLRR
# Target: Dbp2-HTP (S. pombe) (UniProt P24782)
# Test: affinity purification with mass spectrometry
row,binding,Binder
1,binds,B1
2,binds,B2
3,binds,B3
4,binds,B4
5,binds,B5
6,binds,B6

# Target: T1, Srp2-HTP (S. pombe)
# Test: affinity purification with mass spectrometry
row,binding,Binder
1,binds,B7
2,binds,B8

# These are yes or no findings as the source states them, for the method shown. In cells and extracts the contact can be indirect. A yes stands for co-enrichment or nearness to the bait. Other partners may have been found.
